Data published in PubChem BioAssay AID504834 (National Center for Advancing Translational Sciences (NCATS), 2011).
Among all 320,000 compounds or so, about 22,000 (6.9%) were called active. This list was built around the results that the source calls inconclusive (neither active nor inactive); the mix of calls is not that of the screen. The call rests on the fitted dose curve; in most records, active means well fitted inhibition curve with a large enough effect; inconclusive means small, poorly fitted or top-dose-only effect, or another doubt; inactive means no such curve, though single readings can be large or run the other way. A potency beside an inconclusive call is a rough fit, not a confirmed value.
Potency means the concentration at half of the fitted maximal effect.

Assay: Primary qHTS for delayed death inhibitors of the malarial parasite plastid, 96 hour incubation
Conditions: P. falciparum luciferase reporter growth; series mostly up to 28.7 µM
Procedure, shortened: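 P. falciparum expressing integrated firefly luciferase, in erythrocytes at 2% hematocrit, 0.05% parasitemia, incubated with compounds 96 h at 37 C, 5% CO2. Growth inhibition read as loss of luminescence; two-generation exposure targets delayed-death apicoplast inhibitors.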
For `O=C(COC(=O)c1ccccn1)Nc1nc(-c2cccc([N+](=O)[O-])c2)cs1`, the Potency was “inactive”.
With `Cc1cccc(-n2c(=O)c3ccccc3n3c(=S)[nH]nc23)c1C` the Potency was “inactive”.
With `CCNc1nnc(SCC(=O)N2c3ccccc3NC(=O)CC2C)s1` (stereo not given) the Potency was inconclusive: 18.5 µM [inhibitor, single point].
With `O=C(Nc1ccc(F)cc1F)C1CC(=O)N(Cc2ccccc2)C1` (stereo not given) the Potency was inconclusive: 11.7 µM [inhibitor, partial curve].
For `Cc1ccccc1OCC(=O)NC(=S)Nc1ccc2c3c(cccc13)CC2`, the Potency was inconclusive: 18.5 µM [inhibitor, single point].
For `Cc1ccc(/C=N/NC(=O)Cn2cnc3ccccc32)cc1`, the Potency was inconclusive: 11.7 µM [inhibitor, single point].
For `Cc1ccccc1C(=O)NNC(=O)CSc1nnc(-c2ccncc2)n1-c1ccccc1`, the Potency was inconclusive: 18.5 µM [inhibitor, single point].
For `NNC(=O)c1cc2cc(OC(F)(F)F)ccc2[nH]1`, the Potency was inconclusive: 2.08 µM [inhibitor, partial curve, poor fit].
With `Cc1cc(C)nc(NN2C(=O)/C(=C/c3ccccc3)SC2=S)n1` the Potency was inconclusive: 0.0026 µM [inhibitor, full curve, poor fit].
With `CC(C)(C)c1ccccc1NC(=S)NC1CCCC1` the Potency was “inactive”.
With `CC(C)CCC(CCNCc1ccccn1)c1ccc(Cl)cc1` (stereo not given) the Potency was active: 3.29 µM.
With `COc1ccc2cc(-c3ccon3)ccc2c1` the Potency was “inactive”.
With `Cc1c(NC(C)c2ccccc2O)c(=O)n(-c2ccccc2)n1C` (stereo not given) the Potency was inconclusive: 18.5 µM [inhibitor, single point].
For `COc1ccc(C(=O)NCCCNC(=O)c2cnccn2)cc1Br`, the Potency was inconclusive: 8.28 µM [inhibitor, partial curve].
With `Cn1c(NC(=O)CC(C)(C)C)cc(=O)n(C)c1=O` the Potency was inconclusive: 16.5 µM [inhibitor, single point].
With `C=CCSc1nnc(-c2cc3c(s2)-c2ccccc2CC3)o1` the Potency was “inactive”.
In the case of `CC(C)(C)c1ccc(C(=O)c2c[nH]c(C(=O)NCc3cccnc3)c2)cc1`, the Potency is reported as active: 5.22 µM.
In the case of `COc1cc2c(cc1OC)CN(Cc1cc(=O)oc3cc(C)c(C)cc13)CC2`, the Potency is reported as inconclusive: 5.86 µM [inhibitor, partial curve].
For `CC1(C)CC(NC(=O)C2CCN(S(=O)(=O)c3cccc(C(F)(F)F)c3)CC2)CC(C)(C)N1`, the Potency was inconclusive: 18.5 µM [inhibitor, single point].
In the case of `Cc1ccccc1-n1c(C)nc2ccccc21`, the Potency is reported as “inactive”.
In the case of `CCOC(=O)C1=C(CS(=O)(=O)c2ccc(F)cc2)NC(=O)NC1c1ccc(O)c(O)c1` (stereo not given), the Potency is reported as “inactive”.
In the case of `COc1nc(Cl)cn(-c2ccc(C)cc2)c1=O`, the Potency is reported as “inactive”.
In the case of `COc1ccc(C)cc1N(C(=O)c1snc(C(N)=O)c1N)C(C(=O)NC1CCCCC1)c1ccc(C)o1` (stereo not given), the Potency is reported as inconclusive: 10.4 µM [inhibitor, single point].
In the case of `O=C(Cn1c(NCCO)nc2ccccc21)NCCc1ccccc1`, the Potency is reported as inconclusive: 18.5 µM [inhibitor, single point].
For `CS(=O)(=O)N(CC(=O)Nc1ccccc1Br)Cc1ccccc1`, the Potency was “inactive”.
With `CCc1cccc(NC2c3ccccc3C(=O)N2c2ccc(C)cn2)c1` (stereo not given) the Potency was inconclusive: 18.5 µM [inhibitor, single point].
With `Cc1ccc(S(=O)(=O)Nc2ccccc2C(=O)N2CCCCC2)cc1` the Potency was inconclusive: 18.5 µM [inhibitor, single point].
For `N#Cc1c(Sc2ncc(C(F)(F)F)cc2Cl)nsc1C/C=N\OCc1ccccc1Br`, the Potency was inconclusive: 10.4 µM [inhibitor, single point].
In the case of `CC1CN(C(=O)CCC(=O)NCCCc2ccccc2)c2ccccc2O1` (stereo not given), the Potency is reported as “inactive”.
In the case of `O=C(CSc1nnc(NC(=O)c2c(F)cccc2F)s1)Nc1ccccc1F`, the Potency is reported as “inactive”.
For `CCc1cccc(CC)c1NC(=S)N1CCn2cccc2C1c1cccnc1` (stereo not given), the Potency was inconclusive: 11.7 µM [inhibitor, single point].
In the case of `CCOC(=O)N1CCc2c(sc(NC(=O)CN3CCOCC3)c2C#N)C1`, the Potency is reported as inconclusive: 4.15 µM [inhibitor, partial curve, poor fit].
In the case of `Cc1ccc(-n2c(N)c(C(=O)Nc3c(C)n(C)n(-c4ccccc4)c3=O)c3nc4ccccc4nc32)cc1`, the Potency is reported as inconclusive: 2.33 µM [inhibitor, full curve, poor fit].
In the case of `CCOc1ccc(CCNC(=O)c2ccc3c(=O)n4c(nc3c2)CCCCC4)cc1`, the Potency is reported as “inactive”.
For `COc1ccc(C(CNC(=O)/C=C/c2c(Cl)nc3ccccn23)N(C)C)cc1` (stereo not given), the Potency was inconclusive: 4.15 µM [inhibitor, single point].
In the case of `Cc1c(C(=O)OCC(=O)Nc2ccc3c(c2)OCO3)cccc1[N+](=O)[O-]`, the Potency is reported as “inactive”.
In the case of `CN(CC(=O)Nc1ccccc1Br)C(=O)CCc1nc2ccccc2c(=O)[nH]1`, the Potency is reported as inconclusive: 18.5 µM [inhibitor, single point].
With `COc1ccc(OC)c(NC(=O)CSc2nnc(CNC(=O)c3ccccc3F)o2)c1` the Potency was inconclusive: 18.5 µM [inhibitor, single point].
In the case of `COc1cc(C(=O)NCc2nnc(SCC(=O)NC3CCCCC3)o2)cc(OC)c1OC`, the Potency is reported as inconclusive: 11.7 µM [inhibitor, partial curve].
In the case of `CCCn1c(SCC(=O)Nc2ccc(S(=O)(=O)N(C)C)cc2)n[nH]c1=O`, the Potency is reported as inconclusive: 11.7 µM [inhibitor, partial curve, poor fit].
In the case of `CC(Oc1ccc(Cl)cc1Cl)C(=O)Nc1ncccn1` (stereo not given), the Potency is reported as inconclusive: 18.5 µM [inhibitor, single point].
In the case of `C=CC[N+]1([C@H]2C[C@H]3[C@@H]4CC[C@H]5C[C@H](O)[C@@H](N6CCOCC6)C[C@]5(C)[C@H]4CC[C@]3(C)[C@H]2OC(C)=O)CCCC1`, the Potency is reported as active: 4.26 µM.
In the case of `CC(C)(C)c1ccc(NC(=O)CN2C(=O)NC(C)(C3CC3)C2=O)cc1` (stereo not given), the Potency is reported as “inactive”.
For `CCOC(=O)c1ccc(NC(=O)N2CCOCC2)cc1`, the Potency was “inactive”.
For `CCOc1ccc(/C(C)=N/N2C(=O)C(CC(=O)Nc3ccc(OC)cc3[N+](=O)[O-])SC2=Nc2cccc(C)c2C)cc1` (stereo not given), the Potency was active: 2.33 µM.
In the case of `O=c1[nH]c(-c2ccccc2F)nc2c1sc(=S)n2Cc1ccccc1`, the Potency is reported as “inactive”.
With `c1csc(-c2cn3c(n2)SCC3)c1` the Potency was inconclusive: 18.5 µM [inhibitor, single point].
With `COc1ccc(CNC(=O)c2ccc(=O)oc2)cc1OC` the Potency was inconclusive: 0.0029 µM [inhibitor, full curve, poor fit].
For `Cc1ccc(C(C[N+](=O)[O-])c2c(N)n(C)c(=O)n(C)c2=O)cc1` (stereo not given), the Potency was inconclusive: 18.5 µM [inhibitor, partial curve, poor fit].
In the case of `COc1cccc(NC(=O)C(Cc2ccccc2)n2cccc2)c1` (stereo not given), the Potency is reported as inconclusive: 18.5 µM [inhibitor, single point].
For `COc1cc2c(cc1NC(=O)c1cccc(S(=O)(=O)N(C)C)c1)oc1ccccc12`, the Potency was “inactive”.
With `O=S(=O)(c1ccc(Cl)cc1)N1CCCCC1c1cccnc1` (stereo not given) the Potency was inconclusive: 14.7 µM [inhibitor, partial curve].
For `COc1ccccc1CC(=O)NNS(=O)(=O)c1ccccc1[N+](=O)[O-]`, the Potency was inconclusive: 11.7 µM [inhibitor, partial curve, poor fit].
For `CCS(=O)(=O)N1Cc2ccccc2CC1C(=O)N(C)Cc1ccc(OC)c(F)c1` (stereo not given), the Potency was inconclusive: 13.1 µM [inhibitor, partial curve].
For `COc1ccc(CC(=O)NCC(=O)N/N=C/c2cc(Br)ccc2OC)cc1`, the Potency was “inactive”.
With `CCC(=O)Nc1c(C(=O)N2CCN(c3ccccn3)CC2)cnn1-c1ccc(C)cc1` the Potency was inconclusive: 14.7 µM [inhibitor, single point].
With `O=C(CC1C(=O)NCCN1CC(c1ccccc1)c1ccccc1)NCCc1cn[nH]c1` (stereo not given) the Potency was inconclusive: 13.1 µM [inhibitor, single point].
With `COc1ccc(C(=O)Nn2c(CCC(=O)O)ccc2-c2ccc(C)cc2)cc1OC` the Potency was “inactive”.
In the case of `Cc1c(NC(=O)C(C)OC(=O)c2cccnc2Cl)c(=O)n(-c2ccccc2)n1C` (stereo not given), the Potency is reported as “inactive”.
In the case of `Cc1c(C(=O)Nc2c(N)nc(SCC(=O)NCC3CCCO3)[nH]c2=O)cccc1[N+](=O)[O-]` (stereo not given), the Potency is reported as “inactive”.
In the case of `CCCN1CNC(=S)N(Cc2ccccc2)C1`, the Potency is reported as inconclusive: 16.5 µM [inhibitor, single point].
In the case of `COc1ccccc1-c1nc(SCC(=O)Nc2cc(C)on2)c2c(=O)n(C)c(=O)n(C)c2n1`, the Potency is reported as inconclusive: 3.29 µM [inhibitor, partial curve, poor fit].
In the case of `O=C(OCCN=C1NS(=O)(=O)c2ccccc21)c1ccccc1F`, the Potency is reported as “inactive”.
In the case of `CCOC(=O)c1cccc(NC(=O)/C(=C\c2ccccc2)NC(=O)c2ccccc2Cl)c1`, the Potency is reported as inconclusive: 16.5 µM [inhibitor, single point].
With `O=C1C2C(c3ccccc3)C=CC(c3ccccc3)C2C(=O)N1c1cccnc1` (stereo not given) the Potency was inconclusive: 18.5 µM [inhibitor, single point].
In the case of `CCCCC(CC)CNC(=O)CN1C(=O)NC2(CCc3ccccc32)C1=O` (stereo not given), the Potency is reported as “inactive”.
For `N#Cc1ccccc1OCC(=O)Nc1ccc(N2CCOCC2)cc1N1CCOCC1`, the Potency was inconclusive: 18.5 µM [inhibitor, single point].
In the case of `CCn1c(CNc2ccccc2Cl)nnc1SCC(=O)OC1CCCCC1`, the Potency is reported as inconclusive: 10.4 µM [inhibitor, single point].
In the case of `CCN(CC(=O)Nc1c(F)cccc1F)C(=O)Cc1ccsc1`, the Potency is reported as inconclusive: 18.5 µM [inhibitor, partial curve, poor fit].
With `CCCCn1nc(CC(=O)O)c2ccccc2c1=O` the Potency was active: 10.4 µM.
